This note sets out measurements from paper doi:10.1101/710020.

Amino acid sequences for entries named in this document (tags omitted). A change or cut given only in a name is not applied to a line headed by its entry.
UniProt P38811: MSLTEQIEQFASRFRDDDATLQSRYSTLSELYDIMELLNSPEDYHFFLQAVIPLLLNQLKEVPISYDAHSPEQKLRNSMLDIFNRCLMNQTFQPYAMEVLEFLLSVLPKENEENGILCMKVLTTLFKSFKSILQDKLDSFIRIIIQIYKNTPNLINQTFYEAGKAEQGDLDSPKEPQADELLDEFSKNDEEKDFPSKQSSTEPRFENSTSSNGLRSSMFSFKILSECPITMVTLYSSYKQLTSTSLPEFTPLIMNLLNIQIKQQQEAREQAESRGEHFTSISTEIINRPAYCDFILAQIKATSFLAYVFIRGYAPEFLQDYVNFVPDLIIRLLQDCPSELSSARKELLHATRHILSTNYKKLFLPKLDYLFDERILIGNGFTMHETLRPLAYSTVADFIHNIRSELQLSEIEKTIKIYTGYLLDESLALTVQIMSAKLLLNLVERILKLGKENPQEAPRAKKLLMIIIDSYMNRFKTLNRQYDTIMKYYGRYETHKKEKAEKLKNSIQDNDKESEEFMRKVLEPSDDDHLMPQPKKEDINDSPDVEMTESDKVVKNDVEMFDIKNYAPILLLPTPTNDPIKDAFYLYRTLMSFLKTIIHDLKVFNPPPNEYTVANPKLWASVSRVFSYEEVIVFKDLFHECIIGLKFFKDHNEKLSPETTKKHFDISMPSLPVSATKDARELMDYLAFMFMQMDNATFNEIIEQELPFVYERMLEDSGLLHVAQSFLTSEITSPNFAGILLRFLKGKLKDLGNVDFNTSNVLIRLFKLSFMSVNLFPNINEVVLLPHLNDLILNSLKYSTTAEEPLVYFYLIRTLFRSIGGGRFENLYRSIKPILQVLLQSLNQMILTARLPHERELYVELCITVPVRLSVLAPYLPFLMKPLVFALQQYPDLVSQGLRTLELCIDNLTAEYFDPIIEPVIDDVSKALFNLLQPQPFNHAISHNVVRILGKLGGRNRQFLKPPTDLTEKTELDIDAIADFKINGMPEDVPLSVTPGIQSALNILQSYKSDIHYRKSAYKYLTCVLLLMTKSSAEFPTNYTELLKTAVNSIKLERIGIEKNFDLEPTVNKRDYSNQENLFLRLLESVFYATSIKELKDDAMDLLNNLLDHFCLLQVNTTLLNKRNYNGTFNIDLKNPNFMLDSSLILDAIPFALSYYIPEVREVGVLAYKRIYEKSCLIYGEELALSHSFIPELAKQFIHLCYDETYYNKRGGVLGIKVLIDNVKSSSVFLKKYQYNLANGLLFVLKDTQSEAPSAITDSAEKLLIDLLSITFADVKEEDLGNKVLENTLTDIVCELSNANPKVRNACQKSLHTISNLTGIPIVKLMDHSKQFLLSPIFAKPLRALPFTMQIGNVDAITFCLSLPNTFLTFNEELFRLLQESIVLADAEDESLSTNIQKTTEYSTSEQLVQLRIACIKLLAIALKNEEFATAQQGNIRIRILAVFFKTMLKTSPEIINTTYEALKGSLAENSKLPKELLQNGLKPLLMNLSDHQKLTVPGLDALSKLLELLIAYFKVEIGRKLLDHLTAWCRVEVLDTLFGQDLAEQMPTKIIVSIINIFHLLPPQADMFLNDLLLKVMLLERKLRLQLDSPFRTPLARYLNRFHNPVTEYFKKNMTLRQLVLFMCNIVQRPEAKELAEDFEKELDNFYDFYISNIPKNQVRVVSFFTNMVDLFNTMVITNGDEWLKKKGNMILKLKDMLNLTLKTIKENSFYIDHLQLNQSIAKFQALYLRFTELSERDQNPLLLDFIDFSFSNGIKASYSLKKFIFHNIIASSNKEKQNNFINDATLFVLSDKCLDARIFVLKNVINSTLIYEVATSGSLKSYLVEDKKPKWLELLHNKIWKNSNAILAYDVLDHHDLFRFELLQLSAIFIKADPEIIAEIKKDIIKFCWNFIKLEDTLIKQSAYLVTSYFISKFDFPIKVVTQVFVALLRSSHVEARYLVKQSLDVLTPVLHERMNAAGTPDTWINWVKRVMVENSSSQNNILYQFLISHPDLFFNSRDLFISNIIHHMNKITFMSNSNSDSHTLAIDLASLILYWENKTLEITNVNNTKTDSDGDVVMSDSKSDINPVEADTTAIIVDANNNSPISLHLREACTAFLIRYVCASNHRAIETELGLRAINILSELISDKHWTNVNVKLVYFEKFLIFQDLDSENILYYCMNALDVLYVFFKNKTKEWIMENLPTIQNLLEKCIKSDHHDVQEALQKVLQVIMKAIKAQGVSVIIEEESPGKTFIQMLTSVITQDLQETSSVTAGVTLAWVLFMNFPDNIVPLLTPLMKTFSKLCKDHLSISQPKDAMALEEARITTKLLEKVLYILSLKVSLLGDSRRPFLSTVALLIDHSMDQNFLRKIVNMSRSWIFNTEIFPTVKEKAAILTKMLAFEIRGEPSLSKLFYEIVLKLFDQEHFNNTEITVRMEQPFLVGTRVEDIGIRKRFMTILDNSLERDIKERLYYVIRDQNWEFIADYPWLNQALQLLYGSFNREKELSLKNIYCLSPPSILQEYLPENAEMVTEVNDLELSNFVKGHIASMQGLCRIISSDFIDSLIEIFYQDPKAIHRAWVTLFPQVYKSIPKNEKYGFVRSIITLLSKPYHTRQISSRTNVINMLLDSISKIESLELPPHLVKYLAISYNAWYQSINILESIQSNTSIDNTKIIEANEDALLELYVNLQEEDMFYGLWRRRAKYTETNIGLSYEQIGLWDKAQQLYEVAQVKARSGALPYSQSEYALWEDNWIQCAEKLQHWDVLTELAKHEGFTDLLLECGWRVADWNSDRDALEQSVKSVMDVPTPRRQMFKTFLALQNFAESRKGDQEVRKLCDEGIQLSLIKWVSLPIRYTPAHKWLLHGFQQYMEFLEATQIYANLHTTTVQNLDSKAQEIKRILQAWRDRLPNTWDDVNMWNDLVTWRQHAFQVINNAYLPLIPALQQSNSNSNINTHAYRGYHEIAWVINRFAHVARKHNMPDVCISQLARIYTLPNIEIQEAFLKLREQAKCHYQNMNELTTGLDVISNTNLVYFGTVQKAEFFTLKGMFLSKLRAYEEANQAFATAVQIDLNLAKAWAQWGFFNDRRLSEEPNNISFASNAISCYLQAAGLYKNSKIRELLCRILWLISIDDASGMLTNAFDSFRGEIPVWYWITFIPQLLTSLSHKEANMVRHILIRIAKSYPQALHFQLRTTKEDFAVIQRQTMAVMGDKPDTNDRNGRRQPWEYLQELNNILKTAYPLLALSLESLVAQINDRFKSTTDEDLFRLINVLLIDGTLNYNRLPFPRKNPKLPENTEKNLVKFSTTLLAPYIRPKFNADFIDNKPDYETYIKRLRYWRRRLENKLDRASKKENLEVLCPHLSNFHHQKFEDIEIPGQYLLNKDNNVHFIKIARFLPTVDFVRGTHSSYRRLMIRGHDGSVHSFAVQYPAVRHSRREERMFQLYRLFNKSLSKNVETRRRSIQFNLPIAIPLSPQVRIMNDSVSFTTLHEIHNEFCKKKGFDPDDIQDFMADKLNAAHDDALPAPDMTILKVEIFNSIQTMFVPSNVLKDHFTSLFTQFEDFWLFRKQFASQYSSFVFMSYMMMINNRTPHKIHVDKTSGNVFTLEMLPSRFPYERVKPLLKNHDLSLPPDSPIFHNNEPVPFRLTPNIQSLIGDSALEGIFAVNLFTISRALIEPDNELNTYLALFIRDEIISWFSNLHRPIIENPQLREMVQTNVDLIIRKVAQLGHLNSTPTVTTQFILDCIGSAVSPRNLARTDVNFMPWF
UniProt P35177: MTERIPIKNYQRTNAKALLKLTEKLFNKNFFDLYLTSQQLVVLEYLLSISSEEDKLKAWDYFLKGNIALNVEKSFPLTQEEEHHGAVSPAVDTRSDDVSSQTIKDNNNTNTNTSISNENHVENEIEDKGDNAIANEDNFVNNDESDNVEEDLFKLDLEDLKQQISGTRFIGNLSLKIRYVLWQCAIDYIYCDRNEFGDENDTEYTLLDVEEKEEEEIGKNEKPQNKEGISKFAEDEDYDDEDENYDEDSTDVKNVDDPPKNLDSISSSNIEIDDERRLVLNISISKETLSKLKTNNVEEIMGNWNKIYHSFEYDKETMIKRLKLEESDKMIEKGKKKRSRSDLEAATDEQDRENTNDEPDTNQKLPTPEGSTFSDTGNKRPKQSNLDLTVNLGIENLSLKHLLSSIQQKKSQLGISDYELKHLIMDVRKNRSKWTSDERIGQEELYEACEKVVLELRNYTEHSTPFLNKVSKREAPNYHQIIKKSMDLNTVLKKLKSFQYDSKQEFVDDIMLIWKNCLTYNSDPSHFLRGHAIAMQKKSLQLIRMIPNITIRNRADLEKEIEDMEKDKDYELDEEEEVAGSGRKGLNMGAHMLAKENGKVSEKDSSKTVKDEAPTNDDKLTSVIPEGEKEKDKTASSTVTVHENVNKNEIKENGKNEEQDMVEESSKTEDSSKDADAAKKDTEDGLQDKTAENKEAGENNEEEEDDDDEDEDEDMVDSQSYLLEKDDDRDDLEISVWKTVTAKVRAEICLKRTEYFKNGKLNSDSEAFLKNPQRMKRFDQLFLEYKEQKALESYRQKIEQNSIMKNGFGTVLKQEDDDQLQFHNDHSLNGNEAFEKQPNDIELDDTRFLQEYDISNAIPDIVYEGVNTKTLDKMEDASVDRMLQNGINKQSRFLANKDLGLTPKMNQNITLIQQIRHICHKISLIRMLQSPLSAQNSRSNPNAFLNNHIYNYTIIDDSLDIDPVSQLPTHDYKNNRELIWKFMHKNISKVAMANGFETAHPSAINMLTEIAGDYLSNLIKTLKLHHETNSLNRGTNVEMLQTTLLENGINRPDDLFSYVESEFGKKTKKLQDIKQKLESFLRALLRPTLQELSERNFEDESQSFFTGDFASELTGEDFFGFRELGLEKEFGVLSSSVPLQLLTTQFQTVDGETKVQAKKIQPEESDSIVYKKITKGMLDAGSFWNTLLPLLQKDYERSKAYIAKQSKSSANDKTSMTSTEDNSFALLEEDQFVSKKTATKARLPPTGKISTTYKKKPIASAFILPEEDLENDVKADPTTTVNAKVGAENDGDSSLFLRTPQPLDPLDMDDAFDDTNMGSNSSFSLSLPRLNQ

Results are given in words; binding and its absence hold for the method and conditions named. In cells and extracts the contact can be indirect. A yes stands for co-enrichment or nearness to the bait. Other partners may have been found.

First the molecules themselves.
T1: Spt20-TAP (S. cerevisiae) (UniProt P50875)
T1 sequence: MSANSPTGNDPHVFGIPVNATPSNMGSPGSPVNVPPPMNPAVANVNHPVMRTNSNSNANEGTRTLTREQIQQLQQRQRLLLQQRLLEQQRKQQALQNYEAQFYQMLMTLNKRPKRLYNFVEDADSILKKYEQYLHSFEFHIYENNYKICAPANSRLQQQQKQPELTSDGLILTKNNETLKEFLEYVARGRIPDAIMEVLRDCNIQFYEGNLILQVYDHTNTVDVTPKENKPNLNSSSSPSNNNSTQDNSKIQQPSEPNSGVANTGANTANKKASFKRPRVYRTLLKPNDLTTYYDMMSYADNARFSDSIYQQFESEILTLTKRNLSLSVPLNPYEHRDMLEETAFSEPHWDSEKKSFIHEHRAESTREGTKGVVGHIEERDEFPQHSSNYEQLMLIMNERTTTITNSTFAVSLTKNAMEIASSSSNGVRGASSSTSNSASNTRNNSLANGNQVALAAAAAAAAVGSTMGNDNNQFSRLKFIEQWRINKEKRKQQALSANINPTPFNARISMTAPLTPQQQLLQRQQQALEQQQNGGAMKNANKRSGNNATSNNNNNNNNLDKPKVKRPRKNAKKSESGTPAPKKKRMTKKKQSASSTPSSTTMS

B1: Spt8 (~80 kD species) (protein, UniProt P38915 1-602)
chain: MDEVDDILINNQVVDDEEDDEEMLSGLENDSKQDLEGNDDGGEDEEDDDDDDEDDDDDEDEREDDDEQEDDDGEDDAARMDKTATPTNEHQHDEQKAAAAGAGGAGDSGDAVTKIGSEDVKLSDVDGGVGSREASSSTHEASANGEVYEYYKHMLNAAQIADSYNIYPTAAIPIQTHVNALAVSRGLKYLFLGGSDGYIRKYDLLNTLEGKLSLTILQKHSLAESIQNAGILQSYWENEIPQKKSEMKLSANKTDYEPKVSPVHSLEVQSECLFILSGLQNGGITMQGVRYMEGSIAHYFKGRNGHTQIVNILRLNGQEDRFLSGSWDKRLLEWDLQTGDIVNEFKKSRSELSSLEMRPLYSSVDVSGNVNSGKENENADDDMDSLFGDEDEDEKQDAGNEPVETGDGSNGEENKEQISEESLNIVYDESVFMTSGLNGSVHIWDRRMTQSPALSLERGAGVPPWCLSACWGVDGDHVYAGRRNACVEQFDLKMPSKPIHNLKLPSISGPVSCVKAMPNNKHLLCASRDNIRLYNVEIAVDASNSTTKSSKVPFLIVPGHHGGIISNLYLDPTSRFIISTSGNRGWQGNSTDTTLIYDIDLE

The target in the assay is T1, Spt20-TAP (S. cerevisiae). Description: affinity purification with mass spectrometry.
In the case of Tra1 (from UniProt P38811 1-3744), the binding entry is given as “binds”.

“C-terminal truncation of Spt7 (~180 kD species) (from UniProt P35177 1-1141) (domain or fragment)”: the binding entry is listed as “binds”.

For the molecule “Spt7 (full-length, ~200 kD species) (from UniProt P35177 1-1332)”, the binding entry is reported as “binds”.

As for B1, the binding entry is reported as “binds”.
